Experimental data as given in PMC7819943, “Rice protein-binding microarrays: a tool to detect cis-acting elements near promoter regions in rice”.
This is one part of the list.

The chains behind the UniProt entries cited, without tags or fusion partners.
UniProt Q0JBA9, entry or part of it: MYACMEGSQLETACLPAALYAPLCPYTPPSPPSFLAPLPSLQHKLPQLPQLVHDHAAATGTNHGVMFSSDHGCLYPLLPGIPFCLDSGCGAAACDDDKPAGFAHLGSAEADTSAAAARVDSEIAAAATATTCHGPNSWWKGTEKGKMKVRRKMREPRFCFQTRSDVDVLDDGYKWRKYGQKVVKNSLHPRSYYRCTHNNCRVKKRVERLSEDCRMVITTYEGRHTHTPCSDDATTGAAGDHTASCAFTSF

Each sequence was assayed against OsWRKY34 (Oryza sativa, UniProt Q0JBA9 1-250) (assay: protein-binding microarray (RPBM); PBS, 2% BSA, 51.3 ng/ul salmon testes DNA, 50 uM zinc acetate, 200 nM TF, 25 C, 1 h; high values mean tight binding). Details: protein: recombinant; tags: N-terminal polyhistidine and DsRed monomer fusion (pET32a); label: CyDye5-dUTP incorporated in the synthesized complementary strand; 3' TTTTT single-stranded linker to array surface; dsDNA, one strand shown.
Procedure, shortened: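 Transcription factors, each fused N-terminally to a polyhistidine tag and DsRed, were expressed in E. coli BL21-CodonPlus and purified on Ni–NTA. A custom Agilent array was made double-stranded by primer extension with Cy5-dUTP and blocked with 2% BSA. It was incubated with 200 nM protein in PBS, 2% BSA, salmon testes DNA and 50 µM zinc acetate at 25 °C for 1 h, then washed. The binding signal is per-feature fluorescence intensity (arbitrary units) read on an Axon 4000B scanner.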

Sequence | binding signal
TTCATATATATGCCTGTCTCGGATTAAAGTTTTGCTCGTCCGGAGTCACCTAGTGCAG | 8240 fluorescence intensity (a.u.)
TCTTACATGGTTCATTACATTTCCACTTGTACCAGATATGCGGAGTCACCTAGTGCAG | 9140 fluorescence intensity (a.u.)
TCTTTTCGCGAATTAAATACACATTTCTTTTTTTTTTTCACGGAGTCACCTAGTGCAG | 8590 fluorescence intensity (a.u.)
CTAGTTAAAGTTTGATTTGTTATTTTCGTTACAACTTGTACGGAGTCACCTAGTGCAG | 8240 fluorescence intensity (a.u.)
CGGTTTCACTTTCACGTCGTCTCGTACTAACTTCTGTATCCGGAGTCACCTAGTGCAG | 12700 fluorescence intensity (a.u.)
TTAAATTTTGCTTCATGTGTCACATCAATGCTACGTTTTTCGGAGTCACCTAGTGCAG | 10300 fluorescence intensity (a.u.)
TAAATGTTTAACGTCGTTGACTTTTTTAAACATGTATGACCGGAGTCACCTAGTGCAG | 19200 fluorescence intensity (a.u.)
TCCAATCTAATGGCTTCCTCTCTTCTCTGCGCCTCGCCGCCGGAGTCACCTAGTGCAG | 9630 fluorescence intensity (a.u.)
TCCTCGGATGATTTGCGTCCGTCCGTTTGTTCACGCTCTACGGAGTCACCTAGTGCAG | 13200 fluorescence intensity (a.u.)
AACTTGAATGCTACTCTTATATCTTTATATGTCGACTCACCGGAGTCACCTAGTGCAG | 9230 fluorescence intensity (a.u.)
TGAATCCCATAGTTTTCACTGCTTTACTGATACTGATGCTCGGAGTCACCTAGTGCAG | 9470 fluorescence intensity (a.u.)
TAGAGAAGTTTTCGGGGTTTTTATTTCTCTTTTTTTTTTCCGGAGTCACCTAGTGCAG | 8150 fluorescence intensity (a.u.)
ATCCTGTCCCCGGTCTTATCTCCACTTGGACACACCCCGACGGAGTCACCTAGTGCAG | 8890 fluorescence intensity (a.u.)
ATCCACCGCTTCTCAGCCTCTTCCACATACATCCATCCTGCGGAGTCACCTAGTGCAG | 9770 fluorescence intensity (a.u.)
GTGGGAGGGGAGCCCATCAAGATCATTGACTTGACTTGACCGGAGTCACCTAGTGCAG | 8940 fluorescence intensity (a.u.)
CACTCGCCCATCTCTCTCTCCCGCCGCTCTCTCCCTCTCCCGGAGTCACCTAGTGCAG | 9210 fluorescence intensity (a.u.)
GAGTCTTGCACTCTTGCTTCCATTTGCTTCGCACATGTTTCGGAGTCACCTAGTGCAG | 8120 fluorescence intensity (a.u.)
CACTGTTTTTATTTCTTTTCTTTTATCTTCTTAAAATATCCGGAGTCACCTAGTGCAG | 10400 fluorescence intensity (a.u.)
CCCGTCTCCTCGCCTGCCGATCTCCATCCTGCTAGCAGAGCGGAGTCACCTAGTGCAG | 8930 fluorescence intensity (a.u.)
CCATCTCGCTCGCTCACTCATGTCACTCGTCAGCCACTTCCGGAGTCACCTAGTGCAG | 11000 fluorescence intensity (a.u.)
AGAACTTTCCGGCCAATTTTTTTATACCCTCCTGATCAGTCGGAGTCACCTAGTGCAG | 8500 fluorescence intensity (a.u.)

Fetched one by one from the list above:
Sequence | binding signal
GTGGGAGGGGAGCCCATCAAGATCATTGACTTGACTTGACCGGAGTCACCTAGTGCAG | 8940 fluorescence intensity (a.u.)
CACTCGCCCATCTCTCTCTCCCGCCGCTCTCTCCCTCTCCCGGAGTCACCTAGTGCAG | 9210 fluorescence intensity (a.u.)
TTCATATATATGCCTGTCTCGGATTAAAGTTTTGCTCGTCCGGAGTCACCTAGTGCAG | 8240 fluorescence intensity (a.u.)

Continuation:

Sequence | binding signal
ATACCATGATCACGAGGTATTCATTTCATGTAACAATTTTCGGAGTCACCTAGTGCAG | 8100 fluorescence intensity (a.u.)
TAATCTTGCCATGATTTTTATACCCATGCACTTCCTTTCCCGGAGTCACCTAGTGCAG | 8410 fluorescence intensity (a.u.)
TGTTTTGGACTTTTTGGTCAACGGCCCATCAAAGCAAGCCCGGAGTCACCTAGTGCAG | 13000 fluorescence intensity (a.u.)
CAGTTTGACCTCTTCCACTTGTTGTTTCACCTGATCAGCTCGGAGTCACCTAGTGCAG | 9130 fluorescence intensity (a.u.)
CTGTCTCGGTCCCCGTCTACGTCGTCTCTCGCATTTTTCCCGGAGTCACCTAGTGCAG | 10800 fluorescence intensity (a.u.)
CAACATATGCCCCGGCCCATTTACACCGCCCCGCGATAAACGGAGTCACCTAGTGCAG | 8440 fluorescence intensity (a.u.)
GTTCTTCTTCTTCTTCTTCTTTTTTTCGTCCAAGGCCACTCGGAGTCACCTAGTGCAG | 8280 fluorescence intensity (a.u.)
CGGCGACCGCGATGGTGGGGAAGCGGGTGGGGAAATGGGACGGAGTCACCTAGTGCAG | 8180 fluorescence intensity (a.u.)
TACCGCGTCTCTTTCCCTTTCATCTCTGGTTTTTGCAGATCGGAGTCACCTAGTGCAG | 9840 fluorescence intensity (a.u.)
ATGCATCCACATCTTGCTACTGCGATTCGATAGCCGGTGACGGAGTCACCTAGTGCAG | 14500 fluorescence intensity (a.u.)
ACCACCACCACCACCACCATCCCCGGAAAAAATCTTTTTCCGGAGTCACCTAGTGCAG | 10900 fluorescence intensity (a.u.)
ATGATGACATCAATGGTGGGTTTTGCATGGAATCTATACACGGAGTCACCTAGTGCAG | 11900 fluorescence intensity (a.u.)
AATTGATCTGAACTTTGCTTTCATCGTTGCTCAGTTAACCCGGAGTCACCTAGTGCAG | 8220 fluorescence intensity (a.u.)
GACATATTTTTTTCTCCTCTCTTTTTTCATTTGTTTTTTTCGGAGTCACCTAGTGCAG | 11600 fluorescence intensity (a.u.)
CTAATCTTGCTAGCTAGTACCGTACCCAAATCACGGAGATCGGAGTCACCTAGTGCAG | 8260 fluorescence intensity (a.u.)
AGGGTGGGCCAATTAGTTGCGTCGAAGCAAAGATTTTTTTCGGAGTCACCTAGTGCAG | 8920 fluorescence intensity (a.u.)
CCTAGCATCCGCGCCGCCCATACACCCATCTTACCGATCTCGGAGTCACCTAGTGCAG | 8330 fluorescence intensity (a.u.)
TCGCCAACTACTTATTTTGCAATTCCTTTTTAGCCAAAACCGGAGTCACCTAGTGCAG | 10800 fluorescence intensity (a.u.)
TGCTGTTTGGTAGCCAACTTATAAAGGTTTTTTCAGCTTCCGGAGTCACCTAGTGCAG | 9020 fluorescence intensity (a.u.)
CCCACGCAAGCACGCACTCGTCTTAGCAGTCCTCGAGCTTCGGAGTCACCTAGTGCAG | 9400 fluorescence intensity (a.u.)
ATTGATTGATTGGTTGGTTGGTTGGTTGGGTTGATCGATGCGGAGTCACCTAGTGCAG | 20300 fluorescence intensity (a.u.)
